Assay results as given in PMC9814838, “The orphan nuclear receptor Nurr1 is responsive to non-steroidal anti-inflammatory drugs” (Communications Chemistry, 2020).
These are yes or no findings as the source states them, for the method shown.

Target: biotinylated recombinant Nurr1 LBD (Tb-labeled through Tb-cryptate streptavidin) (human) (UniProt P43354)
Experiment: condition: only with 100 µM MFA (meclofenamic acid); AlphaScreen or HTRF; Nurr1 homodimerization as a2, in presence of 100 µM meclofenamic acid (MFA), 1% DMSO; both purified

B1: GFP-Nurr1 LBD (domain or fragment, human, UniProt P43354-1 364-598, looked up)
chain: LISALVRAHVDSNPAMTSLDYSRFQANPDYQMSGDDTQHIQQFYDLLTGSMEIIRGWAEKIPGFADLPKADQDLLFESAFLELFVLRLAYRSNPVEGKLIFCNGVVLHRLQCVRGFGEWIDSIVEFSSNLQNMNIDISAFSCIAALAMVTERHGLKEPKRVEELQNKIVNCLKDHVTFNNGGLNRPNYLSKLLGKLPELRTLCTQGLQRIFYLKLEDLVPPPAIIDKLFLDTLPF
notes: Superfolder GFP is the FRET acceptor; a BamHI site lies between GFP and the LBD; also called GFP-labeled Nurr1 LBD; source: E. coli T7 express with pGro7, purified (IMAC, TEV cleavage, reverse IMAC, SEC); not shown: His10, N-terminal, cleaved; superfolder GFP, N-terminal, kept
- binding: no binding
